The values below come from article doi:10.1101/2021.01.19.427213.

By UniProt entry, the sequences of proteins in these tests, tags left out.
UniProt Q00899: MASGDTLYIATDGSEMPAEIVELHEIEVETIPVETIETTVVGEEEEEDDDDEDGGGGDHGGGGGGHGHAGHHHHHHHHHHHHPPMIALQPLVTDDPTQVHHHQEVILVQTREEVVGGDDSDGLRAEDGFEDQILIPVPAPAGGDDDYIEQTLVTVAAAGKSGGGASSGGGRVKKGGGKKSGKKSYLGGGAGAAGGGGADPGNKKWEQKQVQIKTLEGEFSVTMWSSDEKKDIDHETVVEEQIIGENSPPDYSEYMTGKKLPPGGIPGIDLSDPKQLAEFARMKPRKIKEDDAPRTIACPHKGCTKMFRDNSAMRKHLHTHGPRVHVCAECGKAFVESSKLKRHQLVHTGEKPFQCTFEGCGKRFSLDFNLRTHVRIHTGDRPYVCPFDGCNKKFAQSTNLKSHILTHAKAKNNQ
UniProt Q8K4Q0: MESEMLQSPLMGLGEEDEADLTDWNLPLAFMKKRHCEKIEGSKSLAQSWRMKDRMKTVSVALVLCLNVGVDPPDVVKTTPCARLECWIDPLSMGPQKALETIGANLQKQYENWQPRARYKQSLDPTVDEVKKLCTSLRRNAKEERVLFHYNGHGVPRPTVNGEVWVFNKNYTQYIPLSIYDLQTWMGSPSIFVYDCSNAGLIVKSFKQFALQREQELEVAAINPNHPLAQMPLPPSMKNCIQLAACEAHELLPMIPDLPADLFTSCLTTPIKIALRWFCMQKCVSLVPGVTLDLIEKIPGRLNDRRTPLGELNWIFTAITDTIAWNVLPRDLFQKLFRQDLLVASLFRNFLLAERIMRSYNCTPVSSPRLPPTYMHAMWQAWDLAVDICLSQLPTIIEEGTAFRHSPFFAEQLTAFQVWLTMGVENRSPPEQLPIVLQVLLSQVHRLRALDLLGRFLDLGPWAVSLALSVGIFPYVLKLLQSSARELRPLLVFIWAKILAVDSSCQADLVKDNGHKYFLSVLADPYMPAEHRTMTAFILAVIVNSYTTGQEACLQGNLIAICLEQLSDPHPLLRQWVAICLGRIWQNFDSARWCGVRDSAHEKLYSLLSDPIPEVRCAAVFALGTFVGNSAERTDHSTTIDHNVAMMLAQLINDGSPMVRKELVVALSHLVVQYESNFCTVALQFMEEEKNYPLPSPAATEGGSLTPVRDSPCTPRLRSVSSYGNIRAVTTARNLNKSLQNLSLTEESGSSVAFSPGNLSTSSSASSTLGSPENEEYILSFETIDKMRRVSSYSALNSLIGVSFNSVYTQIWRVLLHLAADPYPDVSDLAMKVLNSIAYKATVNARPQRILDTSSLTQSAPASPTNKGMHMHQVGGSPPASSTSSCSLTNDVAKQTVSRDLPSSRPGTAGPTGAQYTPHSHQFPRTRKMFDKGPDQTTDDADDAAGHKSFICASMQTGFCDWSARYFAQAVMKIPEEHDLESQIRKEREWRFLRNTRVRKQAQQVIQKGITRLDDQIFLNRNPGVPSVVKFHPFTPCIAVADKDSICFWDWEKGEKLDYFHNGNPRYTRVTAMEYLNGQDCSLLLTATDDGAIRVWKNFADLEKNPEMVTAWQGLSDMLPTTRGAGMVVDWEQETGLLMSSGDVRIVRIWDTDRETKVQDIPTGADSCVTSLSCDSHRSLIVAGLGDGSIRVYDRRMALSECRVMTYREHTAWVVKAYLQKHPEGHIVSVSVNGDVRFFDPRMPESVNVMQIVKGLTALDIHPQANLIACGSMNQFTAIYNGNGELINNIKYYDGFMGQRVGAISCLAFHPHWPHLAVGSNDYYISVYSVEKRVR

These are yes or no findings as the source states them, for the method shown. In cells and extracts the contact can be indirect. Some entries that bind do so weakly or less than the wild type.

The target in the test is Yin Yang transcription factor 1 (YY1) (mouse (endogenous in heart)) (UniProt Q00899). Description: co-IP.

As to Raptor (from UniProt Q8K4Q0 1-1335), the binding result is recorded as “binds”.
